Measured values from patent US20240216509A1.
No constants are given. Whether binding was seen depends on the method and setting. Some binding calls cover weakened binding; strength is not graded here.

Protein sequences, listed by entry. Tags and fused reporters are not part of them. Lines headed by an entry give the natural chain unless they say otherwise; changes in a name come on top.
UniProt Q15116: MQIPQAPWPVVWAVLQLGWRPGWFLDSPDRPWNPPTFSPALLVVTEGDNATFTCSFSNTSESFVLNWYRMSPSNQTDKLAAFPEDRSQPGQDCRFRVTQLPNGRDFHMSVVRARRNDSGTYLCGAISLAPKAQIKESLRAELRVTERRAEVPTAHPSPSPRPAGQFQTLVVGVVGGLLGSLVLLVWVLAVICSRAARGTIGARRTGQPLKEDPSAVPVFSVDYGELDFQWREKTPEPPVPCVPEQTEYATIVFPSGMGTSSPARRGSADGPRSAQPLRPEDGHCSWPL
UniProt P01732: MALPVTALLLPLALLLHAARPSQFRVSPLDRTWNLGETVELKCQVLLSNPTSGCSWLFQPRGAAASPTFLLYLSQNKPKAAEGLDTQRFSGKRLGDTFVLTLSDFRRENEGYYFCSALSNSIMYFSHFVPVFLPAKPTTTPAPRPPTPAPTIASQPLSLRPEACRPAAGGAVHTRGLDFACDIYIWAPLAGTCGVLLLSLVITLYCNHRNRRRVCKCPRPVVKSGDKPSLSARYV

Target: full length human PD-1 expressed on the surface of transfected Drosophila S2 cells or Raji cells (human) (UniProt Q15116)
Test: co-culture of CAR NK-92 with PD-1-expressing S2 or Raji cells; recognition inferred from degranulation and killing

PD-L1 CAR (2nd generation CAR, PDL1-CD28-CD3ζ) expressed on NK-92 cells (from UniProt P01732 138-182; P10747 153-220; P20963 52-164)
binding: binds
